# In PubChem BioAssay (NCATS):
# Sequences of proteins named here, by UniProt entry; tags and fusion partners are left off. A change or cut given only in a name is not applied to a line headed by its entry.
# UniProt P01375, whole entry, looked up: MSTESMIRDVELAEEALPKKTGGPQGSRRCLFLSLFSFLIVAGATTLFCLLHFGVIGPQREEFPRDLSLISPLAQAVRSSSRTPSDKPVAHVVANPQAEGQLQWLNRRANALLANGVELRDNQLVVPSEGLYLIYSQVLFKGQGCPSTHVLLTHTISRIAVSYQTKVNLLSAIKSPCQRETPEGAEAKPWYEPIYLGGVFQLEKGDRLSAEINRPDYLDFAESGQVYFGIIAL
# UniProt P51449: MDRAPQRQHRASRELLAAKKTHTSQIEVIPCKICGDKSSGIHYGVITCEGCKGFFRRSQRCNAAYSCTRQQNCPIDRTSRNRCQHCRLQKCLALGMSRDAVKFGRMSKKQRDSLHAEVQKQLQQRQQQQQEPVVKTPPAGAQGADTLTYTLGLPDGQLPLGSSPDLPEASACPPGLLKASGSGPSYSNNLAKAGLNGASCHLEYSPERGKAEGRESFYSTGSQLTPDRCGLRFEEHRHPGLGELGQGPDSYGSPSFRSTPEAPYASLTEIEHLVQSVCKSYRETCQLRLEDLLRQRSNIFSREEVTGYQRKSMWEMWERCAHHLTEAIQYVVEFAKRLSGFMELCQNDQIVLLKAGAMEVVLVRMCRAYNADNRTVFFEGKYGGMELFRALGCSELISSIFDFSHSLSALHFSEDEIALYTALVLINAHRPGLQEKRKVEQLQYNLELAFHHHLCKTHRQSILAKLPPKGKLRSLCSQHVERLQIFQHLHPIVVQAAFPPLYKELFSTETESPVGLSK
# Values joined by “and” are separate entries in the source; they are usually repeats but may differ in a detail not shown here. Equal entries are not always repeated. The shares of active, inactive and inconclusive entries below differ from those in the screen. For some assays here: Where the call is inconclusive, the potency comes from a doubtful curve fit. Active and inactive are the calls of the source. Unless noted, calls come from the whole dose curve; as a rule, active = well fitted curve in the direction sought with a large enough effect; inconclusive = small, poorly fitted or top-dose-only effect, or another doubt; inactive = no such curve, though single readings can be large; an effect the other way counts as inactive or inconclusive.
# Experiments:
# [1] = qHTS assay for small molecule disruptors of the mitochondrial membrane potential - 5 hr assay (AID 651755; calls by dose curve; note: potency is the fitted concentration of half-maximal effect; nearly all actives have a fitted effect of over 40% in size); details: JC-1-type ratio dye; ratio change, negative = disruption: at 92.2 µM (top of the series)
# Procedure, shortened: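 HepG2, 2,000 cells/well, overnight attach; cpd or DMSO 5 hr, 37C/5% CO2; Mito-MPS 30 min 37C; fluor 490/535 + 540/590 nm.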
# [2] = target: Tumor necrosis factor (Homo sapiens) (UniProt P01375); experiment: qHTS assay to identify small molecules that stimulate Tumor Necrosis Factor-alpha (TNF-alpha) secretion (AID 651757; active = well fitted curve in the direction sought with a large enough effect in the signal ratio; inconclusive = small, poorly fitted or top-dose-only effect, or a change in a side signal; inactive = no such curve, though single readings can be large or run the other way; the % refers to the signal ratio; note: 0% is about no effect); details: Human cells, HTRF 665/615 ratio; activation (TNF-alpha secretion): at 92.2 µM (top of the series)
# Procedure, shortened: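 THP-1 cells were exposed to compounds for 17 hrs at 37 C, after which secreted TNF-alpha was measured by homogeneous HTRF (TR-FRET) using cryptate- and XL665-labeled anti-TNF-alpha antibodies, read after 3 hr at room temperature.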
# [3] = qHTS assay to identify small molecules that stimulate interleukin-8 (IL-8) secretion (AID 651758; active = well fitted activation curve with a large enough effect in the signal ratio; inconclusive = small, poorly fitted or top-dose-only effect, or effect the other way, or a change in a side signal; the % refers to the signal ratio; note: 0% is about no effect); details: HTRF ratio (665/615); activation: at 92.2 µM (top of the series)
# Procedure, shortened: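 Secreted IL-8 measured by TR-FRET sandwich (cryptate and XL665 antibodies) from THP-1 cells exposed to compound overnight (16 hrs, 37 C).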
# [4] = target: Nuclear receptor ROR-gamma (Homo sapiens) (UniProt P51449); experiment: qHTS assay for small molecule antagonists of the retinoid-related orphan receptor gamma (ROR-gamma) signaling pathway (AID 651802); note: potency is the fitted concentration of half-maximal effect; nearly all actives have a fitted effect of over 60% in size
# Procedure, shortened: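 CHO cells carrying TET-inducible ROR-gamma and an ROR response element–luciferase reporter were exposed to compound, then induced with doxycycline. After 16hr at 37C, luminescence was read; lower signal indicates antagonism.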
# [5] = qHTS assay for small molecule agonists of the antioxidant response element (ARE) signaling pathway measured by Nrf2-dependant transcriptional activity (AID 720636; active = well fitted curve in the direction sought with a large enough effect in the repeat runs; inconclusive = weak or mixed curves; inactive = no such curve, though single readings can be large; an effect the other way counts as inactive or inconclusive; note: potency is the fitted concentration of half-maximal effect)
# Procedure, shortened: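 Nrf2-dependent transcription is measured in ARE-luc HepG2 cells: compound is applied for 16 hr at 37 C after a 6 hr attachment period, and luciferase activity is quantified by luminescence using ONE-Glo.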
# [6] = qHTS assay for small molecule antagonists of the retinoid-related orphan receptor gamma (ROR-gamma) signaling pathway - cell viability counter screen (AID 720652; active = well fitted curve in the direction sought with a large enough effect in the repeat runs; inconclusive = weak or mixed curves; inactive = no such curve, though single readings can be large; an effect the other way counts as inactive or inconclusive;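 note: potency is the fitted concentration of half-maximal effect; compound exposure lasted 16 hr before ATP read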)
# Procedure, shortened: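 Counter screen in CHO cells carrying TET-inducible ROR-gamma and an ROR response element-luciferase reporter; cells plated 5 hr, compound pinned, doxycycline added, then 16 hr at 37 C. Viability read as intracellular ATP by CellTiter-Glo luminescence.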
# [7] = qHTS assay for cell viability of HEK293 cells (AID 743288); details: ATP luminescence (CellTiter-Glo), 18 h; max response: stronger effect = lower value; note: potency is the fitted concentration of half-maximal effect; nearly all actives have a fitted effect of over 50% in size
# Procedure, shortened: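 Parental HEK293 cells, 2,000 per well, preincubated at least 5 h at 37 C, then exposed to compounds in DMSO for 18 h at 37 C. Viability by CellTiter-Glo ATP luminescence after 30 min at room temperature.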
# [8] = qHTS assay for cell viability of the p53RE-bla HCT-116 cell line (AID 743292); note: potency is the fitted concentration of half-maximal effect; nearly all actives have a fitted effect of over 55% in size
# Procedure, shortened: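 ATP-based luminescence, 16 h compound exposure at 37 C, p53RE-bla HCT-116 cells at 4,000/well.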
compound,measurement,setting,value
O=C1c2ccccc2C(=O)C1c1ccc2ccccc2n1,Potency,[1],active: 1.68 µM
same,activation (TNF-alpha secretion),[2],inconclusive: 3.89%
same,activation,[3],inconclusive: 28.9%
same,Potency,[4],"inconclusive: 11.9 µM [inhibitor, partial curve, poor fit]"
same,Potency,[5],active: 1.54 µM and active: 1.33 µM
same,Potency,[6],active: 33.5 µM
same,Potency,[7],"active: 39.8 µM and inconclusive: 28.2 µM [cytotoxic, partial curve]"
same,Potency,[8],"inconclusive: 44.7 µM [cytotoxic, partial curve]"

# 2 successive records already listed:
compound,measurement,setting,value
O=C1c2ccccc2C(=O)C1c1ccc2ccccc2n1,activation (TNF-alpha secretion),[2],inconclusive: 3.89%
same,activation,[3],inconclusive: 28.9%
